Results: article PMC5388407
No constants are given. Whether binding was seen depends on the method and setting.

Molecular target: S. cerevisiae Nab2 Zn fingers 5–7 F450A mutant (ZnF567^F450A) (S. cerevisiae) (UniProt P32505)
Experiment: SEC-MALS; protein with a small excess of A12 RNA; Superdex 200 10/30, 20°C, 50 mM Tris pH 8.5, 100 mM NaCl, 2 mM Mg acetate, 100 μM ZnCl2, 1 mM DTT; both purified

- binding: no binding
B1: S. cerevisiae Nab2 Zn fingers 5–7 F450A mutant (ZnF567^F450A) (domain or fragment, UniProt P32505 409-485)
chain: EKSLEQCKFGTHCTNKRCKYRHARSHIMCREGANCTRIDCLAGHPINEDCRFGVNCKNIYCLFRHPPGRVLPEKKGA
